Reference: US12729225B2, “Non-canonical SWI/SNF complex and uses thereof” (Dana-Farber Cancer Institute, Inc., priority 2018, dated 2026)

B1: TCP11L2 (protein, UniProt Q8N4U5 1-519, looked up)
T-complex protein 11-like …: MPFNGEKQCVGEDQPSDSDSSRFSESMASLSDYECSRQSFASDSSSKSSSPASTSPPRVVTFDEVMATARNLSNLTLAHEIAVNENFQLKQEALPEKSLAGRVKHIVHQAFWDVLDSELNADPPEFEHAIKLFEEIREILLSFLTPGGNRLRNQICEVLDTDLIRQQAEHSAVDIQGLANYVISTMGKLCAPVRDNDIRELKATGNIVEVLRQIFHVLDLMQMDMANFTIMSLRPHLQRQLVEYERTKFQEILEETPSALDQTTEWIKESVNEELFSLSESALTPGAENTSKPSLSPTLVLNNSYLKLLQWDYQKKELPETLMTDGARLQELTEKLNQLKIIACLSLITNNMVGAITGGLPELASRLTRISAVLLEGMNKETFNLKEVLNSIGIQTCVEVNKTLMERGLPTLNAEIQANLIGQFSSIEEEDNPIWSLIDKRIKLYMRRLLCLPSPQKCMPPMPGGLAVIQQELEALGSQYANIVNLNKQVYGPFYANILRKLLFNEEAMGKVDASPPTN
B2: ANKRD49 (protein, UniProt Q8WVL7 1-239, looked up)
Ankyrin repeat …: MEKEKGNDDGIPDQENSLDFSEHFNQLELLETHGHLIPTGTQSLWVGNSDEDEEQDDKNEEWYRLQEKKMEKDPSRLLLWAAEKNRLTTVRRLLSEKATHVNTRDEDEYTPLHRAAYSGHLDIVQELIAQGADVHAVTVDGWTPLHSACKWNNTRVASFLLQHDADINAQTKGLLTPLHLAAGNRDSKDTLELLLMNRYVKPGLKNNLEETAFDIARRTSIYHYLFEIVEGCTNSSPQS

System: mSWI/SNF complexes
Assay: mSWI/SNF complex purification with HA-tagged baits and mass spectrometry (peptide counts)
Design: species or system human
Conditions: 293_HA-DPF2 purification; for Total: total peptides; for Unique: unique peptides

Molecule | Total | Unique
B1 | 1 | 1
B2 | 1 | 1
